Measured values taken from the supplement of paper PMC10849652.
Some of the results follow.

Amino acid sequences for entries named in this document (tags omitted). A change or cut given only in a name is not applied to a line headed by its entry.
UniProt Q05BV3: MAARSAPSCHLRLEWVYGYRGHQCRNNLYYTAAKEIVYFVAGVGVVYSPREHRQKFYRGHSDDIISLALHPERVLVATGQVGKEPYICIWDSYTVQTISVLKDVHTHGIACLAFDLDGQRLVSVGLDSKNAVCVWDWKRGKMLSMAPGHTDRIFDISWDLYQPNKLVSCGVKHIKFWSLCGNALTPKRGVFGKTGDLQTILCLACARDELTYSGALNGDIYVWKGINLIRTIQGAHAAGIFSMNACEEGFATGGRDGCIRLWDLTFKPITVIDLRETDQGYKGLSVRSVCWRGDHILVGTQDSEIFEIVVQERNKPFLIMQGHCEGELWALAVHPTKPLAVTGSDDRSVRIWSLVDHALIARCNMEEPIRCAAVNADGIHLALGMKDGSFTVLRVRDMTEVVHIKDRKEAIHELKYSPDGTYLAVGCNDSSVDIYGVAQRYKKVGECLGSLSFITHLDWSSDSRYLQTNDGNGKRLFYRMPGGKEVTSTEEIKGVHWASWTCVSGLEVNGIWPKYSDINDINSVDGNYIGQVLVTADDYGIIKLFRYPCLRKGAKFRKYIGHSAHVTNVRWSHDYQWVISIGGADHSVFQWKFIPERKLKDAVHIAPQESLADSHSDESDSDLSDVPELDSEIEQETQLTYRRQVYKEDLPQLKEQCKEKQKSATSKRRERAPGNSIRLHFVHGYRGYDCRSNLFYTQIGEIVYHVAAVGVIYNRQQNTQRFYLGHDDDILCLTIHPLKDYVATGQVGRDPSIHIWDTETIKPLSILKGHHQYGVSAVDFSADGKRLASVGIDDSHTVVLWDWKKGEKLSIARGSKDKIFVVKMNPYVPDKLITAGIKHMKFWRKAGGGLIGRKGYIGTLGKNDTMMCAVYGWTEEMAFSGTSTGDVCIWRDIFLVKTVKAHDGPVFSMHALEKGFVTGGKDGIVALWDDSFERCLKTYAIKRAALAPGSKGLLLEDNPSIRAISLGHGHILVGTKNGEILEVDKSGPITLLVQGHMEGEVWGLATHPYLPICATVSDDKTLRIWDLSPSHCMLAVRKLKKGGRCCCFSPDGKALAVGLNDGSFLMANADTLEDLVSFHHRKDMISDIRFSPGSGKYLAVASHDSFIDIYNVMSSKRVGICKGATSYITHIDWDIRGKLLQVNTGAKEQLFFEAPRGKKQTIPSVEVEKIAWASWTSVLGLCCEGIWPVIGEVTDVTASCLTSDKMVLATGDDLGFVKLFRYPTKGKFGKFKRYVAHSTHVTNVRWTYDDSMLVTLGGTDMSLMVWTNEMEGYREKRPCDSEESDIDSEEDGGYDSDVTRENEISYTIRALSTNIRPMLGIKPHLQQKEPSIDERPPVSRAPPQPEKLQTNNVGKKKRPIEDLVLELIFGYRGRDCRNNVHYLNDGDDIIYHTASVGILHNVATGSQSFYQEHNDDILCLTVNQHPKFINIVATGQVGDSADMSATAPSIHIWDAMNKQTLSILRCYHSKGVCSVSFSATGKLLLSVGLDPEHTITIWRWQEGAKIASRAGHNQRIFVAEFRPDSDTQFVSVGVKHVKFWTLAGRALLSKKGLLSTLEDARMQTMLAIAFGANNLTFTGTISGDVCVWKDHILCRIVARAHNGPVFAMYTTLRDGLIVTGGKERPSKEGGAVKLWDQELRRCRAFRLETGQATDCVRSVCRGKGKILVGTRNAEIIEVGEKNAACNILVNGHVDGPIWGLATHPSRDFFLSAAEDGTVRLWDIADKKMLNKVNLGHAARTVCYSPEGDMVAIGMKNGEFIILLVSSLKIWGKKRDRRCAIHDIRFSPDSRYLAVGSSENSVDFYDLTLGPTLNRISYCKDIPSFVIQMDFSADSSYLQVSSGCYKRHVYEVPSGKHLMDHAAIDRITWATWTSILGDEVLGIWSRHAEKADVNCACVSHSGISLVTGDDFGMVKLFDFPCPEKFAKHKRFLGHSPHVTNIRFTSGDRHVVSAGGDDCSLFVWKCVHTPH
UniProt P11171, whole entry, looked up: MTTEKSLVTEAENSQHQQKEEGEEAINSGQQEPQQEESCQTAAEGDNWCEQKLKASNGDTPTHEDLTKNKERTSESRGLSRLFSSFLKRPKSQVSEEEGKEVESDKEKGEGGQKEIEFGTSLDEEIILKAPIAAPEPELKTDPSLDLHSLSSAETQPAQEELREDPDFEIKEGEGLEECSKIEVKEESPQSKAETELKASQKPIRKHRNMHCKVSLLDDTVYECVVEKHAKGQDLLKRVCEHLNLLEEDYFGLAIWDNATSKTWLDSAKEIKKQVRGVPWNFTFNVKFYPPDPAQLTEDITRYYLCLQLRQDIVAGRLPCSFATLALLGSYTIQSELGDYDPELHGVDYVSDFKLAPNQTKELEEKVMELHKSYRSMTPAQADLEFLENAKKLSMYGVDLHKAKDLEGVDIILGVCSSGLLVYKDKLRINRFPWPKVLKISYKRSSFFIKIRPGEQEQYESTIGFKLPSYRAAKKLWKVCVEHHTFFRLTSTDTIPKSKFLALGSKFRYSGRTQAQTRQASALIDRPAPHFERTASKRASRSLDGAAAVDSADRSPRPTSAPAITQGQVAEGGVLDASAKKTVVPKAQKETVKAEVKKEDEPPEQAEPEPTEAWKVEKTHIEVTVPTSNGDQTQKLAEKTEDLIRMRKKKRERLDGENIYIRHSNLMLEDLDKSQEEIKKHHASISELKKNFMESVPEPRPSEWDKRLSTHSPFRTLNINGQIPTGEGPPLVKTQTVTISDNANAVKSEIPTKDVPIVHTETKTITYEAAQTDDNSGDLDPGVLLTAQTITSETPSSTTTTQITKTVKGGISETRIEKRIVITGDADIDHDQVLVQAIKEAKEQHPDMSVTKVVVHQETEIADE
UniProt O43491, whole entry, looked up: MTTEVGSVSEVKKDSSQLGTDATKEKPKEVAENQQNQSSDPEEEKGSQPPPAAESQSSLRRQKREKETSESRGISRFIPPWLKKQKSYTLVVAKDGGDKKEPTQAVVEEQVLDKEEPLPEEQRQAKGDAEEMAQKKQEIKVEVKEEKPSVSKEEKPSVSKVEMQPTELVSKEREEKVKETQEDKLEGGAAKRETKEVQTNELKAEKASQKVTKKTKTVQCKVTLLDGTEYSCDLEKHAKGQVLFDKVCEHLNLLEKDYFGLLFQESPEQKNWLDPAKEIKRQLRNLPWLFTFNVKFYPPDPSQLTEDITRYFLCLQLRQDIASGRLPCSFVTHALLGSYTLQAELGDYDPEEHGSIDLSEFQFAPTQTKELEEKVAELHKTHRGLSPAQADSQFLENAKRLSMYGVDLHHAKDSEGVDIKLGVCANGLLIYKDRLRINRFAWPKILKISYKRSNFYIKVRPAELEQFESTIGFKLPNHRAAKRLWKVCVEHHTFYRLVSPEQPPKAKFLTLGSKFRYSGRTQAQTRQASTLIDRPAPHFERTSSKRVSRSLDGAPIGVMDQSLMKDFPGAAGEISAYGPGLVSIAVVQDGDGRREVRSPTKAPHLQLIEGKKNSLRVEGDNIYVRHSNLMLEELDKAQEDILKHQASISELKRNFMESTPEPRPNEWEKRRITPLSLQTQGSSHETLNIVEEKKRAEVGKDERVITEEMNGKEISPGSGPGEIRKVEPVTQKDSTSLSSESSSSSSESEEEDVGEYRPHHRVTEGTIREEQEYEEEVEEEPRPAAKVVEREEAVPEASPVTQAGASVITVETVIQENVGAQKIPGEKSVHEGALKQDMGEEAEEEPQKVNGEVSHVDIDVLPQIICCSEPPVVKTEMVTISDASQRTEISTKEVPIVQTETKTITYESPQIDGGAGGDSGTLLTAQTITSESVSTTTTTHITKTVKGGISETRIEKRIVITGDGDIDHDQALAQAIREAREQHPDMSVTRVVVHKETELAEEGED
UniProt Q13216, whole entry, looked up: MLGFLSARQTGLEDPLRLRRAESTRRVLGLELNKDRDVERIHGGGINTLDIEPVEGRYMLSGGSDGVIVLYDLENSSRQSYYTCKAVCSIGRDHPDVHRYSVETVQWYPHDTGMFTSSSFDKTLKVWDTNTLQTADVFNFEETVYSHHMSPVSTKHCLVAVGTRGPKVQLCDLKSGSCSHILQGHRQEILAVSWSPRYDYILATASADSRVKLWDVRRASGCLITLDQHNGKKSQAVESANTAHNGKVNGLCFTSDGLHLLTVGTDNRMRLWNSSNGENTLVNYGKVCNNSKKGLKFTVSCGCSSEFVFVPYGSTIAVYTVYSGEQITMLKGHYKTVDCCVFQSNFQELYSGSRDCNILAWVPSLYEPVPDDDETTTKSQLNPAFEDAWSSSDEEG
UniProt Q9HCM4: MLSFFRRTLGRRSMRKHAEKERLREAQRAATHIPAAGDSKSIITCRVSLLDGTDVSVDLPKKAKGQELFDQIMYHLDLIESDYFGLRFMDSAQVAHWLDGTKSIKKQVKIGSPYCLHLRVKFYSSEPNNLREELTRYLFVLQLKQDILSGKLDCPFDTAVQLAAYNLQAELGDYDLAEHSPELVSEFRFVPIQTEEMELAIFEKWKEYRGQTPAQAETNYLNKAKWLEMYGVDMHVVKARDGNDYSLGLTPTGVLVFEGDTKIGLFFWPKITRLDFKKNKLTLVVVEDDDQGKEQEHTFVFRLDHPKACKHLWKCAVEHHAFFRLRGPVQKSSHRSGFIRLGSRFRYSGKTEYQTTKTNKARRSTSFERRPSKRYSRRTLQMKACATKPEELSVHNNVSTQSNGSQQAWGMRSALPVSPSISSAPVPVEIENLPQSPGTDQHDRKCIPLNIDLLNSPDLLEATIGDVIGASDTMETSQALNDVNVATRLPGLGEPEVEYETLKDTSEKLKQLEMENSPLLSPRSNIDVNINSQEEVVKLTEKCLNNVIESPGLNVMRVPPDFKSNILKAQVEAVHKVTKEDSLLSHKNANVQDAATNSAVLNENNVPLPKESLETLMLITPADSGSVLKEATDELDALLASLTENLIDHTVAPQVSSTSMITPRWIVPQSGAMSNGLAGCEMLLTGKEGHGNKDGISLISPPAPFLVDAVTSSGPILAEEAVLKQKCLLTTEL
UniProt Q9UKR5: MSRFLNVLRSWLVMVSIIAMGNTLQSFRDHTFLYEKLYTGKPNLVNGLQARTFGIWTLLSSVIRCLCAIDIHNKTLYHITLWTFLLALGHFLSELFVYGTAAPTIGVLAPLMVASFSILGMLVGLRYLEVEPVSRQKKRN
UniProt Q96AY2: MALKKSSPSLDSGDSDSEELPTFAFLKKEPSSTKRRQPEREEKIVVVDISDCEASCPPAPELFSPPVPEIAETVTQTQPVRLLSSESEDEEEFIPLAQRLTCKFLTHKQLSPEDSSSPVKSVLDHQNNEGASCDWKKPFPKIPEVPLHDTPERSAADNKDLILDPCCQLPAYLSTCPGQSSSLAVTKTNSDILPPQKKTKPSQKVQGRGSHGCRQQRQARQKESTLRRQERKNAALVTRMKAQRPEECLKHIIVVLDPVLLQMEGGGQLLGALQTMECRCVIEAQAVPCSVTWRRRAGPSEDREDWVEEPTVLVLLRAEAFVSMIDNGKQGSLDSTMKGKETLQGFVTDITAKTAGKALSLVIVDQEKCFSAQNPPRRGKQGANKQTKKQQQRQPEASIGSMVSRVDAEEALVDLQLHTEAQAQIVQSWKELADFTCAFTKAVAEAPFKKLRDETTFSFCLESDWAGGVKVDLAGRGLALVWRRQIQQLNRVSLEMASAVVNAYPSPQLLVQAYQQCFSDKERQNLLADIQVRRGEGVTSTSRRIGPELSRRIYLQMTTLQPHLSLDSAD
UniProt Q9NYP7: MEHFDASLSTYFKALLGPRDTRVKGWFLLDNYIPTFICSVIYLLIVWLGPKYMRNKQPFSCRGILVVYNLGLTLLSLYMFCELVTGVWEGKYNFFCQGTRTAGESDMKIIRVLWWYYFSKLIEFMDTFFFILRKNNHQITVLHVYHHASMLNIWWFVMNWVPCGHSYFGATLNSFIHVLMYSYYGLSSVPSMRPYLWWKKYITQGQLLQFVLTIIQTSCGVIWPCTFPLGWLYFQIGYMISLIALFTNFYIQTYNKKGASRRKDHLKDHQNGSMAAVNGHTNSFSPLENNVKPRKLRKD
UniProt Q9Y227: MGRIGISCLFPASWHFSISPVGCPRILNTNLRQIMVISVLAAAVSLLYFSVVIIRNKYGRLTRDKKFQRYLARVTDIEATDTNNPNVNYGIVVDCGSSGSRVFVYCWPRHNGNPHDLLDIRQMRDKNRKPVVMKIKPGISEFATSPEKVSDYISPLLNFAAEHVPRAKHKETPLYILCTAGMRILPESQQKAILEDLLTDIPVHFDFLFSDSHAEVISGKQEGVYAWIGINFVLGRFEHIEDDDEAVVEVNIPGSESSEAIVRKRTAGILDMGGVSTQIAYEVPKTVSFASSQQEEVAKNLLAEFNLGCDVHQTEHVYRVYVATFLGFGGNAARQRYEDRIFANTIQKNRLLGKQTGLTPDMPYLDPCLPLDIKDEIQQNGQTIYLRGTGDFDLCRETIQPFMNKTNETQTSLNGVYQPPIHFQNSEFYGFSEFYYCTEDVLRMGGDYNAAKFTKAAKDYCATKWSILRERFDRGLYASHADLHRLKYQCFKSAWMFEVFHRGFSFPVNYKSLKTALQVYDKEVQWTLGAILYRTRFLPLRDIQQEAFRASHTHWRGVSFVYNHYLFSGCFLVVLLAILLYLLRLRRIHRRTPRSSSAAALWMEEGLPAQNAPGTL

Columns and labels:
Assay in all cases: log2 fold change, soluble protein after heating vs DMSO (PISA); higher = thermal stabilisation; K562 lysate, 10 uM; active = over 0.2 and 3.5 SD of the protein, either way, in both replicates (recomputed)
erlotinib = compound: C#Cc1cccc(Nc2ncnc3cc(OCCOC)c(OCCOC)cc23)c1 [erlotinib]
Method in brief: (§1)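 K562 pellets were dounce-homogenised in PBS pH 7.4 with 1 mM MgCl2, and the crude extract at 1 mg/mL protein was treated with 10 μM compound for 30 min. Aliquots were heated for 3 min across 48°C-58°C, pooled, and brought to 0.5% NP-40 at 4°C; soluble protein was the supernatant after 21,000xg for 90 min. Soluble protein was quantified by TMTpro 16plex LC-MS/MS with channel sums equalised, and reported as log2 fold change in thermal stability against DMSO controls, with values from duplicates.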

[1] = compound: C/C(=N\NC(=O)C1=CC(=CC=C1)S(=O)(=O)N2CCOCC2)/C3=C(C=CC(=C3)Cl)O
Method in brief: as §1

[2] = compound: C1=CC(=CC=C1C2=NC3=C(N2)C=C(C=C3)C(=O)N)OC4=CC=C(C=C4)Cl
Method in brief: as §1

[3] = compound: C1=CC2=C(C=CC(=C2)/C=C\3/C(=O)NC(=NCC4=CC=CS4)S3)N=C1
Method in brief: as §1

[4] = compound: C1=CC=C2C(=C1)C3=NNC4=CC=CC(=C43)C2=O
Method in brief: as §1

[5] = compound: C1CCN(C1)C(=O)NC2=CC=CC(=C2)NC3=NC=C(C(=N3)NCCC4=CN=CN4)Br
Method in brief: as §1

[6] = compound: C1CN(CCC1(CC2=CC=C(C=C2)Cl)N)C3=NC=NC4=C3C=CN4
Method in brief: as §1

[7] = compound: CC(=O)c1cnc2ccc(-c3cc(Cl)c(O)c(Cl)c3)nc2c1N[C@H]1CC[C@H](CN(C)C)CC1
Method in brief: as §1

[8] = compound: CC(C)C1=C2N=C(C=C(N2N=C1)NCC3=CC=CC=C3)NCCCCCCN
Method in brief: as §1

[9] = compound: CC1=C(C2=C(C=C1)C(=O)C3=CC=CC=C3N2CCCN)C
Method in brief: as §1

[10] = compound: CC1=CC=C(C=C1)SC2=C3C=C(SC3=CN=C2)C(=O)N
Method in brief: as §1

[11] = compound: C1=CC2=NC=CN=C2C=C1/C=C/3\C(=O)NC(=O)S3
Method in brief: as §1

[12] = compound: C1=CC=C(C=C1)C2=NC(=C(N2)C3=CC=NC=C3)C4=CC(=C(C=C4)Cl)O
Method in brief: as §1

IRAK-1-4 Inhibitor I = compound: C1COCCN1CCN2C3=CC=CC=C3N=C2NC(=O)C4=CC(=CC=C4)[N+](=O)[O-] [IRAK-1-4 Inhibitor I]
Method in brief: as §1

ibrutinib = compound: C=CC(=O)N1CCC[C@@H](n2nc(-c3ccc(Oc4ccccc4)cc3)c3c(N)ncnc32)C1 [ibrutinib]
Method in brief: as §1

ralimetinib = compound: CC(C)(C)Cn1c(N)nc2ccc(-c3[nH]c(C(C)(C)C)nc3-c3ccc(F)cc3)nc21 [ralimetinib]
Method in brief: as §1

[13] = compound: CC(C)(O)CC(=O)NCCn1ccc2ncnc(Nc3ccc(Oc4cccc(C(F)(F)F)c4)c(Cl)c3)c21
Method in brief: as §1

[14] = compound: CC1=C(C(CC(=O)N1)C2=CC=C(C=C2)C(F)(F)F)C(=O)NC3=C(C=C4C(=C3)C=NN4)F
Method in brief: as §1

[15] = compound: CC1=C(C=C(C=C1)NC(=O)C2=CC(=CC=C2)C(C)(C)C#N)NC3=CC4=C(C=C3)N=CN(C4=O)C
Method in brief: as §1

[16] = compound: CC1=C(C=C(C=C1)NC(=O)C2=CC(=CC=C2)N(C)C)NC(=O)C3=CC=C(C=C3)O
Method in brief: as §1

Measured: log2 fold change

EPS15L1 (UniProt M0QY01)
inactive: erlotinib 0.017 | [1] -0.047 | [2] 0.082 | [3] -0.078 | [4] -0.081 | [5] -0.054 | [6] 0.027 | [7] 0.08 | [8] -0.098 | [9] 0.043 | [10] -0.061

ERBIN isoform 8 (UniProt Q96RT1)
inactive: erlotinib 0 | [1] -0.002 | [2] -0.008 | [3] 0.044 | [11] -0.032 | [12] -0.001 | [4] -0.034 | [5] 0.007 | [6] 0.023 | IRAK-1-4 Inhibitor I -0.034 | ibrutinib 0.029 | [7] -0.011 | ralimetinib -0.003 | [13] 0.01 | [8] -0.003 | [14] -0.037 | [9] 0.012 | [15] -0.007 | [16] 0.019 | [10] -0.01

ELOVL1 (UniProt Q9BW60)
inactive: erlotinib -0.048 | [1] -0.063 | [2] -0.175 | [3] -0.037 | [11] 0.012 | [12] -0.027 | [4] -0.139 | [5] 0.058 | [6] -0.066 | IRAK-1-4 Inhibitor I 0.052 | ibrutinib -0.033 | [7] 0.079 | ralimetinib 0.026 | [13] -0.178 | [8] -0.119 | [9] 0.033 | [15] 0.071 | [16] 0.004 | [10] 0.023

ELK1 (UniProt P19419)
inactive: [1] -0.104 | [3] -0.154 | [11] 0.164 | [12] -0.059 | [4] -0.003 | [5] -0.099 | [6] -0.038 | IRAK-1-4 Inhibitor I 0.078 | ibrutinib -0.059 | ralimetinib 0.049 | [13] -0.129 | [9] -0.139 | [16] -0.057

EIF4G3, A0A0A0MSA7
inactive: [12] 0.091 | IRAK-1-4 Inhibitor I 0.275 | ralimetinib -0.096 | [13] -0.111 | [9] -0.143 | [16] 0.031

EMC1 (UniProt H7C5A2)
inactive: erlotinib 0.028 | [2] 0.063 | [12] 0.1 | IRAK-1-4 Inhibitor I -0.011 | [7] -0.335 | ralimetinib -0.172 | [13] -0.129 | [8] 0 | [9] -0.15 | [15] 0.065 | [16] 0.078 | [10] -0.232

EIF3I (UniProt Q5TFK1)
inactive: [7] 0.266 | [14] -0.661 | [10] -0.059

EML5 isoform 5 (UniProt Q05BV3)
inactive: erlotinib -0.018 | [2] -0.007 | [12] -0.079 | IRAK-1-4 Inhibitor I -0.033 | [7] -0.02 | ralimetinib 0.081 | [13] 0.058 | [8] 0.032 | [14] 0.02 | [9] -0.005 | [15] 0.037 | [16] -0.029 | [10] 0.016

EPB41 isoform 4 (UniProt P11171)
inactive: erlotinib -0.128 | [2] -0.054 | [12] -0.012 | IRAK-1-4 Inhibitor I 0.002 | [7] 0.048 | ralimetinib -0.056 | [13] -0.018 | [8] 0.148 | [14] -0.012 | [15] 0.042 | [16] -0.001 | [10] -0.004

Taken from the listing (3 entries):
EIF3I (UniProt Q5TFK1)
inactive: [7] 0.266 | [14] -0.661 | [10] -0.059

EML5 isoform 5 (UniProt Q05BV3)
inactive: erlotinib -0.018 | [2] -0.007 | [12] -0.079 | IRAK-1-4 Inhibitor I -0.033 | [7] -0.02 | ralimetinib 0.081 | [13] 0.058 | [8] 0.032 | [14] 0.02 | [9] -0.005 | [15] 0.037 | [16] -0.029 | [10] 0.016

EPB41 isoform 4 (UniProt P11171)
inactive: erlotinib -0.128 | [2] -0.054 | [12] -0.012 | IRAK-1-4 Inhibitor I 0.002 | [7] 0.048 | ralimetinib -0.056 | [13] -0.018 | [8] 0.148 | [14] -0.012 | [15] 0.042 | [16] -0.001 | [10] -0.004

Going on with the list.

EPN2 (UniProt I3L356)
inactive: [11] -0.143 | ibrutinib 0.105 | [7] -0.021 | [14] 0.102 | [10] 0.097

EPB41L2 isoform 4 (UniProt O43491)
inactive: [11] -0.066 | [12] -0.016 | IRAK-1-4 Inhibitor I 0.086 | ibrutinib -0.08 | [7] -0.008 | ralimetinib -0.02 | [13] -0.148 | [14] 0.042 | [16] -0.18 | [10] 0.024

EIF2B5, A0A3B3ITK8
inactive: [7] 0.015 | [14] 0.037 | [10] -0.104

ERCC8 (UniProt Q13216)
inactive: [11] -0.155 | ibrutinib 0.071 | [7] -0.098 | [14] 0.153 | [15] 0.027 | [10] -0.069

EPB41, A0A2R8Y783
inactive: [1] -0.136 | [3] 0.09 | [11] -0.058 | [4] 0.017 | [5] -0.001 | [6] 0.346 | ibrutinib 0.196 | [7] 0.093 | [9] 0.057 | [10] 0.034

EPS8L1 (UniProt Q8TE68)
inactive: [1] 0.097 | [3] -0.028 | [11] -0.048 | [12] 0.024 | [4] -0.081 | [5] 0.081 | [6] -0.107 | IRAK-1-4 Inhibitor I 0.057 | ibrutinib 0.033 | ralimetinib 0.078 | [13] 0.039 | [9] -0.096 | [15] -0.042 | [16] -0.034

EPB41L5 (UniProt Q9HCM4)
inactive: erlotinib 0.075 | [2] -0.012 | [11] 0.028 | [5] -0.167 | [6] -0.01 | ibrutinib 0.012 | [7] 0.156 | [8] 0.022 | [15] -0.002 | [10] -0.105

EMC1 isoform 3 (UniProt Q8N766)
inactive: [12] 0.009 | IRAK-1-4 Inhibitor I 0.023 | [7] 0.164 | ralimetinib -0.03 | [13] -0.035 | [15] -0.012 | [16] -0.061 | [10] 0.003

ENO3 (UniProt K7EKN2)
inactive: [7] 0.052 | [10] 0.05

ENTPD6 (UniProt O75354)
inactive: erlotinib -0.017 | [2] -0.085 | [11] -0.041 | [12] 0.034 | IRAK-1-4 Inhibitor I 0.066 | ibrutinib -0.204 | [7] 0.118 | ralimetinib -0.09 | [13] -0.051 | [8] -0.008 | [9] 0.003 | [15] -0.026 | [16] 0.035 | [10] -0.004

EIF4EBP3 (UniProt O60516)
inactive: erlotinib 0.129 | [2] 0.005 | [8] -0.047

ERG28 (UniProt Q9UKR5)
inactive: [11] -0.015 | [5] 0.072 | [6] -0.066 | ibrutinib 0.064 | [7] -0.045 | [9] 0.059 | [10] -0.004

EIF4A1 (UniProt J3KS25)
inactive: [1] 0.106 | [3] -0.016 | [12] 0.006 | [4] 0.263 | [5] -0.201 | [6] 0.279 | IRAK-1-4 Inhibitor I -0.099 | ralimetinib -0.101 | [13] -0.029 | [16] 0.295

EME1 isoform 2 (UniProt Q96AY2)
inactive: [1] 0.063 | [3] -0.093 | [11] -0.038 | [12] -0.03 | [4] -0.154 | [5] 0.105 | [6] -0.007 | IRAK-1-4 Inhibitor I 0.132 | ibrutinib -0.055 | ralimetinib -0.009 | [13] -0.114 | [15] -0.026 | [16] 0.104

EIF4B (UniProt F8VP89)
inactive: [11] 0.031 | ibrutinib -0.019 | [7] -0.01 | [9] 0.149 | [15] 0.368 | [10] 0.202

EPC1 (UniProt Q9H2F5)
inactive: [11] 0.028 | ibrutinib 0.154 | [15] -0.165

ELOVL5 isoform 2 (UniProt Q9NYP7)
inactive: [1] -0.012 | [3] 0.057 | [11] 0.076 | [12] -0.065 | [4] -0.185 | [5] -0.04 | [6] -0.009 | IRAK-1-4 Inhibitor I 0.069 | ibrutinib -0.144 | [7] -0.008 | ralimetinib 0.054 | [13] -0.159 | [14] 0.034 | [9] 0.077 | [15] -0.005 | [16] 0.071 | [10] -0.038

ENTPD4 (UniProt Q9Y227)
inactive: [12] -0.06 | IRAK-1-4 Inhibitor I -0.134 | ralimetinib 0.073 | [13] -0.121 | [16] 0

EIF2AK3 (UniProt Q9NZJ5)
inactive: erlotinib -0.014 | [2] 0.015 | [12] -0.049 | IRAK-1-4 Inhibitor I -0.044 | [7] 0.003 | ralimetinib 0.039 | [13] -0.191 | [8] 0.012 | [14] -0.052 | [9] 0.037 | [16] -0.061 | [10] -0.07

EPB41L5 isoform 2 (UniProt Q9HCM4)
inactive: [7] -0.116 | [10] 0.017

ENTR1 (UniProt Q96C92)
inactive: [1] -0.018 | [3] -0.028 | [12] 0.117 | [4] 0.022 | [5] 0.06 | [6] 0.059 | IRAK-1-4 Inhibitor I -0.075 | ralimetinib -0.012 | [13] -0.023 | [14] 0 | [15] 0.106 | [16] -0.052

EPN1 isoform 3 (UniProt Q9Y6I3)
inactive: erlotinib -0.057 | [2] 0.202 | [12] -0.198 | IRAK-1-4 Inhibitor I -0.154 | [7] -0.026 | ralimetinib 0.035 | [13] 0.037 | [8] 0.074 | [14] 0.072 | [9] -0.095 | [15] 0.179 | [16] -0.086 | [10] -0.12

ELAC1 (UniProt Q9H777)
inactive: [1] 0.137 | [3] -0.052 | [11] 0.03 | [4] -0.117 | [5] 0.273 | [6] 0.15 | ibrutinib 0.013 | [7] -0.004 | [10] -0.108
